The data set can be described thus: general procedure: solution-phase peptide synthesis; EDC/1-hydroxybenzotriazole (fragment couplings); TBTU/1-hydroxybenzotriazole/dii.

As for “N-Boc-D-AlaThz-Trp-(4-OMe)Trp-Gly-D-Ala-DHA-Sar-OEt”, the step yield (coupling step) came to 81%.

Argyrin F gave a step yield (late stage modification step) of 58% yield.

Consider N^α-Boc-D-SerThz-Trp-(4-OMe)Trp-Gly-OMe, for which the step yield (coupling step) came to 78%.

In turn, N^α-Boc-D-AlaThz-Trp-(4-OMe)Trp-Gly-OMe showed a step yield (coupling step) of 78%.

Argyrin A had a cyclisation yield (cyclisation step) of 57%.

As for “N-Boc-D-SerThz-Trp-(4-OMe)Trp-Gly-D-Ala-DHA-Sar-OEt”, where the note is “coupling step”, the step yield was determined as 76%.

The values are drawn from patent US9458200B2 (Gottfried Wilhelm Leibniz Universität Hannover, priority 2008, dated 2016).
